From US20240376155A1, “NOVEL COMPOUNDS AND COMPOSITIONS FOR TARGETED THERAPY OF RENAL CANCERS” (SHANGHAI MICURX PHARMACEUTICAL CO., LTD., priority 2021, published 2024)
Converted amounts (≈) assume the structure as drawn. Read-outs that look alike come from different tables or passages of the source.

Tests used:
[1] = test system: HK-2 cell line; experiment: HK-2 cytotoxicity assay; type: cell-based; settings: HK-2 immortalized proximal tubule cells from normal human kidney; read-out: In vitro human HK-2 assay IC50
Excerpt: The assay is analogously to that described, for example, by Keirstead et al. in Toxicol. Sci. 2014, vol. 137, pp. 278-291.

[2] = mouse, oral gavage, single dose 30 mg/kg, corrected for kidney tissue density
[3] = test system: luciferase-expressing A498 renal cancer cell line (A498-luc); settings: 30 mg/kg/day, PO, BID
[4] = test system: renal carcinomas; settings: from 40 ng/mL per kidney tissue density of 1.03 g/mL

**Q.** Which IC50 [1] does the source give for `CNC(=O)c1ccccc1Sc1ccc2c(/C=C/c3ccccn3)n[nH]c2c1` [Axitinib, N-methyl-2-[[3-[(E)-2-pyridin-2-ylethenyl]-1H-indazol-6-yl]sulfanyl]benzamide, reference compound] here?
**A.** The IC50 was 36.1 µg/mL (≈ 93.4 µM).

**Q.** What about the “Kidney Tissue Conc. of axitinib” value ([2]; T = 3 h) of the same molecule?
**A.** The value was “T = 3 h: 301.0 ng/mL”.

**Q.** And the “Kidney Tissue Conc. of axitinib” value ([2]; T = 6 h)?
**A.** The value was “T = 6 h: 96.6 ng/mL”.

**Q.** What about the “Kidney Tissue Conc. of axitinib” value ([2]; T = 12 h) of the same molecule?
**A.** Its value is “T = 12 h: 16.2 ng/mL”.

**Q.** And the “Kidney Tissue Conc. of axitinib” value ([2]; T = 24 h, 30 mg/kg)?
**A.** Its value is “T = 24 h: BLQ”.

**Q.** And the “Kidney Tissue Conc. of axitinib” value ([2]; T = 24 h, listed as axitinib, 30 mg/kg)?
**A.** The value was “BLQ”.

**Q.** What about the “tumor growth inhibition (TGI)” value [3] of the same molecule?
**A.** Its value is 89.7%.

**Q.** What about the “axitinib kidney concentration predictive of effective inhibition of renal cancers” value [4] of the same molecule?
**A.** The value was “about 39 ng/g”.
